Results are given in words; binding and its absence hold for the method and conditions named. Some results given as binding are weak or reduced against the parent protein; the word gives no strength.
Columns and labels:
[1] = target: human PDL1-Fc fusion protein (human); assay: ELISA, human PDL1-Fc coated
[2] = target: human PDL1-Fc fusion protein (human); assay: BLI (ForteBIO Octet QKe), PDL1-Fc loaded

Chains of the proteins cited; added tags and fusions are not shown. Lines headed by an entry give the natural chain unless they say otherwise; changes in a name come on top.
UniProt P43431: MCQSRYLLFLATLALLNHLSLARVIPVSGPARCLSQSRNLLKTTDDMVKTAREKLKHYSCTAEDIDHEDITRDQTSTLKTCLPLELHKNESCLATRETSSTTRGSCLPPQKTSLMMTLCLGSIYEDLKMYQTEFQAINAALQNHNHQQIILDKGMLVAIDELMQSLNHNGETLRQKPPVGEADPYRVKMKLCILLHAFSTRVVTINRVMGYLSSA

binding [1] | binding [2] | Substance
binds | binds | Fusion 5 (from UniProt P43431 23-215; P43432 23-335)
binds | binds | Fusion 4 (from UniProt P43431 23-215; P43432 23-335)
binds | binds | Fusion 3 (from UniProt P43431 23-215; P43432 23-335)

From patent EP4703382A1
